Paper PMC10323252
These are yes or no findings as the source states them, for the method shown. Some binding calls cover weakened binding; strength is not graded here. For some assays here: Tags and fused reporters may be left off the sequences shown.

Protein sequences, listed by entry. Tags and fused reporters are not part of them.
UniProt P62491: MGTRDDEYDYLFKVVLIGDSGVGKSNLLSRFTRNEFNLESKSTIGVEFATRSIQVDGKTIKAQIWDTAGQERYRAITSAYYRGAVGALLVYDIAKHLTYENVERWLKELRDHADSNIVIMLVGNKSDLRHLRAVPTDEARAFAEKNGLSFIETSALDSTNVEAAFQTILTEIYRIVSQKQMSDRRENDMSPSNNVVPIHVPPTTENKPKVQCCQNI
UniProt Q9UBF8: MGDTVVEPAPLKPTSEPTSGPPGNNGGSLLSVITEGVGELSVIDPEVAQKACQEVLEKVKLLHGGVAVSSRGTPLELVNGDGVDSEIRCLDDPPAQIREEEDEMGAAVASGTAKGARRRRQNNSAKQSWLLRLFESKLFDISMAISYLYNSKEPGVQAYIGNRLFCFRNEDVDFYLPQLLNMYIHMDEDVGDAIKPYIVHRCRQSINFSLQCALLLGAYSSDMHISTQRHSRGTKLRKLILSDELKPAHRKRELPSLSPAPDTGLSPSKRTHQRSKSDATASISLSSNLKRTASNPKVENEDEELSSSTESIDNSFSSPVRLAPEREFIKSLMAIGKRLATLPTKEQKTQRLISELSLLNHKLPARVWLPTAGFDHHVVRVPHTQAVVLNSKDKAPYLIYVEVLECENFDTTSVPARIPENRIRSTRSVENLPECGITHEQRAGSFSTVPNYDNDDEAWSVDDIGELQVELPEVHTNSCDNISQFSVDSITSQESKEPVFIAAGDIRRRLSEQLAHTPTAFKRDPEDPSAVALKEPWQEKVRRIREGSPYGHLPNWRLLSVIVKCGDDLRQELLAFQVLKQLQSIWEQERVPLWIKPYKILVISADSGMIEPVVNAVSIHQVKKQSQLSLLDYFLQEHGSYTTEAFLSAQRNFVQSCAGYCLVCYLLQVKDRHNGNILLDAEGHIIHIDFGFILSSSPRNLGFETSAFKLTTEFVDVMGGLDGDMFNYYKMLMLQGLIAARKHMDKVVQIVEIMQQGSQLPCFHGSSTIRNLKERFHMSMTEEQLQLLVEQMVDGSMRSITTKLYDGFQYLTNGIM
UniProt O60493: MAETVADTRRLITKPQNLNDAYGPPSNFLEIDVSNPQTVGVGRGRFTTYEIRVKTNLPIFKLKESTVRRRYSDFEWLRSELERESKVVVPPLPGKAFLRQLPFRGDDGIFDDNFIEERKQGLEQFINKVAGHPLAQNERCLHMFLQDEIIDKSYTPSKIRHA
UniProt Q13596: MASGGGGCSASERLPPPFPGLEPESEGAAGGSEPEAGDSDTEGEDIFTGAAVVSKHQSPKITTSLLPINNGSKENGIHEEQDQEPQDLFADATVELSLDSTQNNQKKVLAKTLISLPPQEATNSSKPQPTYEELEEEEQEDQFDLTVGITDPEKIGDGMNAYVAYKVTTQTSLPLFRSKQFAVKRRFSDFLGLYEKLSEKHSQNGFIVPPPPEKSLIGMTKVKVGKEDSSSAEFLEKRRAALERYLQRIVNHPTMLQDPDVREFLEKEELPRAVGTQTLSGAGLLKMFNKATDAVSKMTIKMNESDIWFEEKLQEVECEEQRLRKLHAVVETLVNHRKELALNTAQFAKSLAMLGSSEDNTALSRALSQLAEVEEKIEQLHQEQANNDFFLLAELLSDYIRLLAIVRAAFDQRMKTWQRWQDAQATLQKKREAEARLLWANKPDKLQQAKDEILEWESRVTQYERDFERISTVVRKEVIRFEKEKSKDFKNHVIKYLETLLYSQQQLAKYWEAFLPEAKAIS

T1: GFP–FKBP–Rab25 (UniProt P57735)
T1 sequence: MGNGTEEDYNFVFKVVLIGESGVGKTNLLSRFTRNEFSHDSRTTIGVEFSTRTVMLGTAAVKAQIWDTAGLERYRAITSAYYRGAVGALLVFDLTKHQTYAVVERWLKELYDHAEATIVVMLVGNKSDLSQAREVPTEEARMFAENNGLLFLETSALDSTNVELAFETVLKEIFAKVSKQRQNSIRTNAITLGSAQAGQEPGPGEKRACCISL


Key:
GFP–FKBP–Rab11a [1] = biological target: GFP–FKBP–Rab11a (UniProt P62491); assay: knock-sideways relocalisation; A2780 cells expressing pMito-iRFP670-FRB and GFP-FKBP-Rab; rapamycin 200 nM for 4 h; fixed and stained for the endogenous candidate protein; mitochondrial overlap quantified
GFP–FKBP–Rab25 [2] = biological target: T1, GFP–FKBP–Rab25; assay: as above
GFP–FKBP–Rab11a [3] = biological target: GFP–FKBP–Rab11a (UniProt P62491); assay: knock-sideways relocalisation; live A2780 cells co-expressing mitochondrially targeted FRB, GFP-FKBP-Rab and mCherry-Rab11FIP5; rapamycin 200 nM; spinning-disk confocal imaging every 5 min for 1 h; Pearson's correlation with mitochondria
GFP–FKBP–Rab25 [4] = biological target: T1, GFP–FKBP–Rab25; assay: as above

Row | Molecule | binding (GFP–FKBP–Rab11a [1]) | binding (GFP–FKBP–Rab25 [2]) | binding (GFP–FKBP–Rab11a [3]) | binding (GFP–FKBP–Rab25 [4])
1 | PI4KB (from UniProt Q9UBF8 1-816) | binds | – | – | –
2 | SNX3 (from UniProt O60493 1-162) | – | binds | – | –
3 | SNX1 (from UniProt Q13596 1-522) | binds | – | – | –
4 | mCherry–Rab11FIP5 (protein, UniProt Q9BXF6 1-653) MALVRGAEPAAGPSRWLPTHVQVTVLRARGLRGKSSGAGSTSDAYTVIQVGREKYSTSVVEKTHGCPEWREECSFELPPGALDGLLRAQEADAGPAPWAASSAAACELVLTTMHRSLIGVDKFLGQATVALDEVFGAGRAQHTQWYKLHSKPGKKEKERGEIEVTIQFTRNNLSASMFDLSMKDKPRSPFSKIRDKMKGKKKYDLESASAILPSSAIEDPDLGSLGKMGKAKGFFLRNKLRKSSLTQSNTSLGSDSTLSSASGSLAYQGPGAELLTRSPSRSSWLSTEGGRDSAQSPKLFTHKRTYSDEANQMRVAPPRALLDLQGHLDAASRSSLCVNGSHIYNEEPQGPVRHRSSISGSLPSSGSLQAVSSRFSEEGPRSTDDTWPRGSRSNSSSEAVLGQEELSAQAKVLAPGASHPGEEEGARLPEGKPVQVATPIVASSEAVAEKEGARKEERKPRMGLFHHHHQGLSRSELGRRSSLGEKGGPILGASPHHSSSGEEKAKSSWFGLREAKDPTQKPSPHPVKPLSAAPVEGSPDRKQSRSSLSIALSSGLEKLKTVTSGSIQPVTQAPQAGQMVDTKRLKDSAVLDQSAKYYHLTHDELISLLLQRERELSQRDEHVQELESYIDRLLVRIMETSPTLLQIPPGPPK | – | – | binds | binds
5 | Rab11FIP5 (protein, UniProt Q9BXF6 1-653) MALVRGAEPAAGPSRWLPTHVQVTVLRARGLRGKSSGAGSTSDAYTVIQVGREKYSTSVVEKTHGCPEWREECSFELPPGALDGLLRAQEADAGPAPWAASSAAACELVLTTMHRSLIGVDKFLGQATVALDEVFGAGRAQHTQWYKLHSKPGKKEKERGEIEVTIQFTRNNLSASMFDLSMKDKPRSPFSKIRDKMKGKKKYDLESASAILPSSAIEDPDLGSLGKMGKAKGFFLRNKLRKSSLTQSNTSLGSDSTLSSASGSLAYQGPGAELLTRSPSRSSWLSTEGGRDSAQSPKLFTHKRTYSDEANQMRVAPPRALLDLQGHLDAASRSSLCVNGSHIYNEEPQGPVRHRSSISGSLPSSGSLQAVSSRFSEEGPRSTDDTWPRGSRSNSSSEAVLGQEELSAQAKVLAPGASHPGEEEGARLPEGKPVQVATPIVASSEAVAEKEGARKEERKPRMGLFHHHHQGLSRSELGRRSSLGEKGGPILGASPHHSSSGEEKAKSSWFGLREAKDPTQKPSPHPVKPLSAAPVEGSPDRKQSRSSLSIALSSGLEKLKTVTSGSIQPVTQAPQAGQMVDTKRLKDSAVLDQSAKYYHLTHDELISLLLQRERELSQRDEHVQELESYIDRLLVRIMETSPTLLQIPPGPPK | binds | binds | – | –
6 | SH3BP5L (protein, UniProt Q7L8J4 1-393) MAELRQVPGGRETPQGELRPEVVEDEVPRSPVAEEPGGGGSSSSEAKLSPREEEELDPRIQEELEHLNQASEEINQVELQLDEARTTYRRILQESARKLNTQGSHLGSCIEKARPYYEARRLAKEAQQETQKAALRYERAVSMHNAAREMVFVAEQGVMADKNRLDPTWQEMLNHATCKVNEAEEERLRGEREHQRVTRLCQQAEARVQALQKTLRRAIGKSRPYFELKAQFSQILEEHKAKVTELEQQVAQAKTRYSVALRNLEQISEQIHARRRGGLPPHPLGPRRSSPVGAEAGPEDMEDGDSGIEGAEGAGLEEGSSLGPGPAPDTDTLSLLSLRTVASDLQKCDSVEHLRGLSDHVSLDGQELGTRSGGRRGSDGGARGGRHQRSVSL | binds | binds | – | –
7 | CRACR2A (protein, UniProt Q9BSW2 1-731) MAAPDGRVVSRPQRLGQGSGQGPKGSGACLHPLDSLEQKETQEQTSGQLVMLRKAQEFFQTCDAEGKGFIARKDMQRLHKELPLSLEELEDVFDALDADGNGYLTPQEFTTGFSHFFFSQNNPSQEDAGEQVAQRHEEKVYLSRGDEDLGDMGEDEEAQFRMLMDRLGAQKVLEDESDVKQLWLQLKKEEPHLLSNFEDFLTRIISQLQEAHEEKNELECALKRKIAAYDEEIQHLYEEMEQQIKSEKEQFLLKDTERFQARSQELEQKLLCKEQELEQLTQKQKRLEGQCTALHHDKHETKAENTKLKLTNQELARELERTSWELQDAQQQLESLQQEACKLHQEKEMEVYRVTESLQREKAGLLKQLDFLRERNKHLRDERDICFQKNKAAKANTAASRASWKKRSGSVIGKYVDSRGILRSQSEEEEEVFGIPRRSSLGLSGYPLTEEEPGTGEPGPGGPYPRPLRRIISVEEDPLPQLLDGGFEQPLSKCSEEEEVSDQGVQGQIPEAPPLKLTPTSPRGQPVGKEALCKEESSPSAPDRLFKIVFVGNSAVGKTSFLRRFCEDRFSPGMAATVGIDYRVKTLNVDNSQVALQLWDTAGQERYRCITQQFFRKADGVIVMYDLTDKQSFLSVRRWLSSVEEAVGDRVPVLLLGNKLDNEKEREVPRGLGEQLATENNLIFYECSAYSGHNTKESLLHLARFLKEQEDTVREDTIQVGHPAKKKSCCG | binds | binds | – | –
